In the supplement of paper PMC10849652:
The list shows a part of the results.

Protein sequences, listed by entry. Tags and fused reporters are not part of them. Lines headed by an entry give the natural chain unless they say otherwise; changes in a name come on top.
UniProt Q969P0: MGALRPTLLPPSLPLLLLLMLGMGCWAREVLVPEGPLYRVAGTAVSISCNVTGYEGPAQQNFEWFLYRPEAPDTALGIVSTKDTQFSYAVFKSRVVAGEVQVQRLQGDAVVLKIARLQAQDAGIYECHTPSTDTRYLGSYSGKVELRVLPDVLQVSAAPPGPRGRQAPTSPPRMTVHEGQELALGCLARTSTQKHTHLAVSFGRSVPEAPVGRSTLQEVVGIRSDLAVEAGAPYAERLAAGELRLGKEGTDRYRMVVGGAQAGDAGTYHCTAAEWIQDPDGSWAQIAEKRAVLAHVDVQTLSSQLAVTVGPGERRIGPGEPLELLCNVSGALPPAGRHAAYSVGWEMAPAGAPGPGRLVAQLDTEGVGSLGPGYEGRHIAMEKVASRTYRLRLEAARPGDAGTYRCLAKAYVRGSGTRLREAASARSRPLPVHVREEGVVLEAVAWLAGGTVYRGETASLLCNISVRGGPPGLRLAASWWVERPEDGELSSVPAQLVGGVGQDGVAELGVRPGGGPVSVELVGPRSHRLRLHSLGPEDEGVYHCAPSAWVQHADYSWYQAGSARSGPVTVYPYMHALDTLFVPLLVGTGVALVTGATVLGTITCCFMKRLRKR
UniProt Q8NBZ0, whole entry, looked up: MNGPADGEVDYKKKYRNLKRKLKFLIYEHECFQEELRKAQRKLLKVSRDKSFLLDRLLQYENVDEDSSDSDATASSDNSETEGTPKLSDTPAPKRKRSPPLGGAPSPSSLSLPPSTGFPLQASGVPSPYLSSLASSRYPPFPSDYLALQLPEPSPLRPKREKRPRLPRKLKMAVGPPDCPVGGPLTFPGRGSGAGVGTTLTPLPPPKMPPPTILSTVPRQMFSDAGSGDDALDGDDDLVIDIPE
UniProt P22304: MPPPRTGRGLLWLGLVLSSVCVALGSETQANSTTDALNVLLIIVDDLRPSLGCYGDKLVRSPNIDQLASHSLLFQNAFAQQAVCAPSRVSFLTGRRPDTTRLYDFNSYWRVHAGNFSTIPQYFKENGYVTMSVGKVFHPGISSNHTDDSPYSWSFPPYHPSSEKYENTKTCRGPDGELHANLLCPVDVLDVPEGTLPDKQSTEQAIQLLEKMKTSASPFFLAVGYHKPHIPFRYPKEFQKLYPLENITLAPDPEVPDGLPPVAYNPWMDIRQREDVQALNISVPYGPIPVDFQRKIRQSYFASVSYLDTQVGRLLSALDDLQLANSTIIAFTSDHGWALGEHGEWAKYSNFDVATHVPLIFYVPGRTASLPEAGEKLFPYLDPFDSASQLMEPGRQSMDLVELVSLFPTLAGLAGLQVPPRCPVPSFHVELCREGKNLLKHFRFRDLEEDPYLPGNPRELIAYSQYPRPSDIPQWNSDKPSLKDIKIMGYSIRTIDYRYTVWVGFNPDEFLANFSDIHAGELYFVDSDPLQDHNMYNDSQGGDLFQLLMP
UniProt Q5VWK5: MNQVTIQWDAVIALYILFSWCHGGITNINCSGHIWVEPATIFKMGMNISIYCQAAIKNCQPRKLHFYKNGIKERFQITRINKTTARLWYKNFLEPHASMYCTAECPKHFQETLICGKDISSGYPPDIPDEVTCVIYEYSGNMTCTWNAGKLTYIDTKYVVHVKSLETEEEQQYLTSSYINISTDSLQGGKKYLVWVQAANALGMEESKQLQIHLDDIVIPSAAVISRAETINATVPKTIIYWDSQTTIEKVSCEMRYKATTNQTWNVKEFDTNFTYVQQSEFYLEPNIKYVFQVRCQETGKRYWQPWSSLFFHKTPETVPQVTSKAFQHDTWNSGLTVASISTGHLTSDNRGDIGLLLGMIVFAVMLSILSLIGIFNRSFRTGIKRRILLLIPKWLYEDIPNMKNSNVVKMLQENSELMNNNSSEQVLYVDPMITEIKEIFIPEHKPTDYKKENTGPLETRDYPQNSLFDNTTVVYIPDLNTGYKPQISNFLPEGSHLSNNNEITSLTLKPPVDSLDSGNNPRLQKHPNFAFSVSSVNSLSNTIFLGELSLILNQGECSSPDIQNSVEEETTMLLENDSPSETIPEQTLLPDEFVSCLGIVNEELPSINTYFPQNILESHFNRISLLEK
UniProt Q8N6C5: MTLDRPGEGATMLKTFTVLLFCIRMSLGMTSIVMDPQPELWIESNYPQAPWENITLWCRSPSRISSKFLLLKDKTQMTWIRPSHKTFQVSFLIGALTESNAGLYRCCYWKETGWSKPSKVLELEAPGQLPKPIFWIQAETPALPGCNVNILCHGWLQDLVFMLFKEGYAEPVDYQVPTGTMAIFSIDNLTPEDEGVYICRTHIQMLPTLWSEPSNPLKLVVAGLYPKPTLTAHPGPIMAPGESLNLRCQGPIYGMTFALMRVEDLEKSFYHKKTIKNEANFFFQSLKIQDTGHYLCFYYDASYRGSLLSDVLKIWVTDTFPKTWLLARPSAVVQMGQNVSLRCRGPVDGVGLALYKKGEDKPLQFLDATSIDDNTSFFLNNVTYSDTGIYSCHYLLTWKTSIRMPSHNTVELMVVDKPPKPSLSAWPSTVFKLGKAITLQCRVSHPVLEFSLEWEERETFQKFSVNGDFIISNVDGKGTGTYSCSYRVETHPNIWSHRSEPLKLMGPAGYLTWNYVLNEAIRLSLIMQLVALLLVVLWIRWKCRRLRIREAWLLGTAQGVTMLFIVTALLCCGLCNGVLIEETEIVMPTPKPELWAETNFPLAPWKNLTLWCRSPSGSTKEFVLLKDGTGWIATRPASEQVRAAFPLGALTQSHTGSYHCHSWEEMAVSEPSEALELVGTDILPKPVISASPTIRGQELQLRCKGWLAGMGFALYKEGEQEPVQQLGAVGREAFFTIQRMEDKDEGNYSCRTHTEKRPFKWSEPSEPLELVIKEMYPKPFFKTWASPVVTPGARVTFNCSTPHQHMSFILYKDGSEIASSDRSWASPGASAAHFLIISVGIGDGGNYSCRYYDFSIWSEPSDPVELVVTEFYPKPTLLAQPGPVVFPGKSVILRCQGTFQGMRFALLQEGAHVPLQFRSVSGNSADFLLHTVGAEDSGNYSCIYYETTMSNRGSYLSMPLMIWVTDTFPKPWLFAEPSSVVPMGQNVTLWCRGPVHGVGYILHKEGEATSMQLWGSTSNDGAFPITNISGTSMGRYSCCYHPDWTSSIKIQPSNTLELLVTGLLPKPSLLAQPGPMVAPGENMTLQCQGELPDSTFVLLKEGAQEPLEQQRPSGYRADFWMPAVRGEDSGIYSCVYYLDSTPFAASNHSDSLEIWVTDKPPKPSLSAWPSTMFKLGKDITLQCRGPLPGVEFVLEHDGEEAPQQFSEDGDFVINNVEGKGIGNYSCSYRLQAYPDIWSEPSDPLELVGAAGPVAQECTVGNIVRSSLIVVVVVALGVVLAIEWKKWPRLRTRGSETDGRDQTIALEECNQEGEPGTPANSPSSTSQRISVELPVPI
UniProt Q14643, whole entry, looked up: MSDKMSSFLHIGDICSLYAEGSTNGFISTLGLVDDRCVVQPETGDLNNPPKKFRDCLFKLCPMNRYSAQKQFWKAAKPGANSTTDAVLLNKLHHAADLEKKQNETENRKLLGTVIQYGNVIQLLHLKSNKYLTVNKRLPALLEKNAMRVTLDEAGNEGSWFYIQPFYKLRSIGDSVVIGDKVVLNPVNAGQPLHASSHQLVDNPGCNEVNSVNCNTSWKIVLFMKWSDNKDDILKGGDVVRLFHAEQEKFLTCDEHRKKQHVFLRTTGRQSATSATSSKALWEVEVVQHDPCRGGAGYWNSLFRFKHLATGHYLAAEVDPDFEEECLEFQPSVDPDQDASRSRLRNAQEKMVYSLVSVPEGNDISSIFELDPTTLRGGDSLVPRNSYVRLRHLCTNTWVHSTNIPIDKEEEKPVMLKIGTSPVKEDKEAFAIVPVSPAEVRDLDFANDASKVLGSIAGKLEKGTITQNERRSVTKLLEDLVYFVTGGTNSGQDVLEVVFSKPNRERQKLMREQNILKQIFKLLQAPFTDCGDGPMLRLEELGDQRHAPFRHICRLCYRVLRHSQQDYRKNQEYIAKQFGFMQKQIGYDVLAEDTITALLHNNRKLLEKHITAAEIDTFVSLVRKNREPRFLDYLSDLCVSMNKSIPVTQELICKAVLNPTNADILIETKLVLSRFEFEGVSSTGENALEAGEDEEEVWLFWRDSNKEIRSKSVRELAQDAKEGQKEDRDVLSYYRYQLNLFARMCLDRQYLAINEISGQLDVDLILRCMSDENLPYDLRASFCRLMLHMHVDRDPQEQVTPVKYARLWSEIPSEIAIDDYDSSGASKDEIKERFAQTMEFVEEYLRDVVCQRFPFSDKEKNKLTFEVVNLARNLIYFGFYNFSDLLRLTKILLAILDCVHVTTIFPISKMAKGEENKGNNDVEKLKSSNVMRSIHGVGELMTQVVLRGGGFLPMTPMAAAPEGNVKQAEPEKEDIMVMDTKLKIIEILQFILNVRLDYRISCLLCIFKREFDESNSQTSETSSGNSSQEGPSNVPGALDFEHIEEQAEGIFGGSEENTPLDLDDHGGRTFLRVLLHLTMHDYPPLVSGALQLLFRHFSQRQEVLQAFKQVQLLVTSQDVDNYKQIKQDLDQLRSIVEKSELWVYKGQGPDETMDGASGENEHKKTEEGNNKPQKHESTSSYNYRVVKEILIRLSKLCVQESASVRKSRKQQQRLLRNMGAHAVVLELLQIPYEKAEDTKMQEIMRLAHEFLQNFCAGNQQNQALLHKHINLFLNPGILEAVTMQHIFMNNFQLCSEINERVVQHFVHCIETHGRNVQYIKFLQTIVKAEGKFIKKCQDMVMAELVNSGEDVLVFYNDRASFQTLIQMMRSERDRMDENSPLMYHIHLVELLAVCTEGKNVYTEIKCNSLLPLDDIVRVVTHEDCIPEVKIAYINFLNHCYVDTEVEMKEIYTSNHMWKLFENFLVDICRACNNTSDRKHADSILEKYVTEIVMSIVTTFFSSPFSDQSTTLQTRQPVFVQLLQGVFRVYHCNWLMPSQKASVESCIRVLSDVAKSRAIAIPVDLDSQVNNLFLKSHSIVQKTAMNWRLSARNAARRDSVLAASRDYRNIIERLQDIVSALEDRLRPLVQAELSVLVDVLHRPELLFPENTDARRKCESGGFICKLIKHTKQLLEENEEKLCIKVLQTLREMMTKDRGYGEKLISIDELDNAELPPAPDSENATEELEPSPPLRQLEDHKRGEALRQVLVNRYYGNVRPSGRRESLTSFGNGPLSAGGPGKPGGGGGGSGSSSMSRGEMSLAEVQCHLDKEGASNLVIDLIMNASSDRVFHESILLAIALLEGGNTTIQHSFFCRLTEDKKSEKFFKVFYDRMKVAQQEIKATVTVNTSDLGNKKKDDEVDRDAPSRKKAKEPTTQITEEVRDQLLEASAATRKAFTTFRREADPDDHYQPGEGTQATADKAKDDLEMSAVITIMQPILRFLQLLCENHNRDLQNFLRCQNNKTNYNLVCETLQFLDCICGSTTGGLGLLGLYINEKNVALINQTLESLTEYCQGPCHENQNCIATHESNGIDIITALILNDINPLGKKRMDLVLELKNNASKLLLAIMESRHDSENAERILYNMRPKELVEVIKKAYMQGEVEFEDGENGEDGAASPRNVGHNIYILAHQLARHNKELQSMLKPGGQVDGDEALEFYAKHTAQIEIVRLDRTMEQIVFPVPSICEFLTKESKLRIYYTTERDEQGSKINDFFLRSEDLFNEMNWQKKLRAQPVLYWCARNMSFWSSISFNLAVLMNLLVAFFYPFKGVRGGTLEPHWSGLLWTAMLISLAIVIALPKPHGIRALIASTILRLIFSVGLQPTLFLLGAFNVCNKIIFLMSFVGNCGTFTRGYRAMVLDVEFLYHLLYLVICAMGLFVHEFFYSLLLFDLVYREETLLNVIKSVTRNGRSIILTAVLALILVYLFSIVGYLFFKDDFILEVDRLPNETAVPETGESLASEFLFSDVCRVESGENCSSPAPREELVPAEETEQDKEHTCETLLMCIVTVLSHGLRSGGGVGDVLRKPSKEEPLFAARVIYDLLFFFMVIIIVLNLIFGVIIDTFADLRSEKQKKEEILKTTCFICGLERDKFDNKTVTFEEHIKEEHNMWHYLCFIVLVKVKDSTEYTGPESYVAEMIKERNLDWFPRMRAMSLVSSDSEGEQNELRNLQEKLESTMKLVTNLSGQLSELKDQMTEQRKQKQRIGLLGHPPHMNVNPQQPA
IGKV3D-11, A0A0A0MRZ8, UniProt A0A0A0MRZ8, whole entry, looked up: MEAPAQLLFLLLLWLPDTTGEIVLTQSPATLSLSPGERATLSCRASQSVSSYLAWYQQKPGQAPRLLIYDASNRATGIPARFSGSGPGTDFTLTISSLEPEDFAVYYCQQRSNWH

Key:
Test in all cases: log2 fold change, soluble protein after heating vs DMSO (PISA); higher = thermal stabilisation; K562 cells, 10 uM, 30 min; active = over 0.2 and 3.5 SD of the protein, either way, in both replicates (recomputed)
[1] = compound: CN1C2=C(C3=C1C(=O)N(N=C3)CC4=CC(=CC=C4)N)SC(=C2)S(=O)C
Outline: (§1)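 Aliquots of K562 cells (2×10^6 cells/mL) treated with 10 μM compound for 30 min were heated for 3 min over 48°C-58°C. After pooling and extraction in PBS with 0.5% NP-40 at 4°C, soluble protein from a 21,000xg, 90 min spin was quantified by TMTpro 16plex LC-MS/MS with channel sums equalised. Thermal stability is expressed against control samples, from duplicates, as a log2 fold change.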

[2] = compound: CC1=C(C=C(C=C1)NC(=O)C2=CC(=CC=C2)N(C)C)NC(=O)C3=CC=C(C=C3)O
Outline: as §1

[3] = compound: CC1=CC=C(C=C1)SC2=C3C=C(SC3=CN=C2)C(=O)N
Outline: as §1

[4] = compound: CC1=NC(=CC=C1)C2=C(N=C(N2)C(C)(C)C)C3=CC4=NC=CN=C4C=C3
Outline: as §1

[5] = compound: CCCCN(Cc1ccc(C(=O)NO)cc1)C(=O)Nc1ccccc1 [Nexturastat A]
Outline: as §1

[6] = compound: CCCS(=O)(=O)Nc1ccc(F)c(C(=O)c2c[nH]c3ncc(-c4ccc(Cl)cc4)cc23)c1F [vemurafenib]
Outline: as §1

[7] = compound: CCCS(=O)(=O)Nc1ccc(F)c(C(=O)c2c[nH]c3ncc(Cl)cc23)c1F
Outline: as §1

[8] = compound: CCCc1cc(C)[nH]c(=O)c1CNC(=O)c1cc(-c2ccnc(N3CCN(C)CC3)c2)cc2c1cnn2C(C)C
Outline: as §1

[9] = compound: CCN(CC)Cc1ccc2cc(COC(=O)Nc3ccc(C(=O)NO)cc3)ccc2c1 [givinostat]
Outline: as §1

[10] = compound: CCN(CCCOc1ccc2c(Nc3cc(CC(=O)Nc4cccc(F)c4)[nH]n3)ncnc2c1)CCOP(=O)(O)O [barasertib]
Outline: as §1

[11] = compound: CC[C@@H]1C(=O)N(C)c2cnc(Nc3ccc(C(=O)NC4CCN(C)CC4)cc3OC)nc2N1C1CCCC1
Outline: as §1

[12] = compound: CC[C@@H]1C(=O)N(C)c2cnc(Nc3ccc(C(=O)N[C@H]4CC[C@H](N5CCN(CC6CC6)CC5)CC4)cc3OC)nc2N1C(C)C [volasertib]
Outline: as §1

[13] = compound: CC[C@H](C)[C@@H](C(=O)N[C@@H]([C@@H](C)O)C(=O)N[C@@H](CC(C)C)C(=O)[C@]1(CO1)C)NC(=O)[C@H]([C@@H](C)CC)N(C)C(=O)C [epoxomicin]
Outline: as §1

[14] = compound: CCn1c(C(=O)N(C2CC2)C2CC2)cc2c3c(ncn3C)c(Nc3cc(C)n(C)n3)nc21
Outline: as §1

[15] = compound: CCn1cc(-c2ccnc3[nH]c(-c4cccc(CN(C)C)c4)cc23)c(-c2ccc(NC(=O)N(C)C)cc2)n1
Outline: as §1

[16] = compound: CN(C)CC(=O)Nc1ccc2[nH]c(=O)c3ccccc3c2c1
Outline: as §1

[17] = compound: CN(CCOC1=CC=C(C=C1)C[C@H]2C(=O)NC(=O)S2)C3=CC=CC=N3 (racemic) [rosiglitazone]
Outline: as §1

[18] = compound: CN1CCC(CNc2ccc3ncc(-c4cccc(OC(F)(F)F)c4)n3n2)CC1
Outline: as §1

[19] = compound: CC[C@H](C)N1C=C(C2=C(C=C(C=C21)C3=CN=C(C=C3)N4CCNCC4)C(=O)NCC5=C(C=C(NC5=O)C)C)C
Outline: as §1

Measured: log2 fold change

ISL2 (UniProt H0YN25)
inactive: [1] 0.061

IGSF8 (UniProt Q969P0)
inactive: [2] 0.064 | [3] -0.155 | [4] 0.003 | [5] -0.059 | [6] 0.006 | [7] -0.111 | [8] -0.156 | [9] 0.053 | [10] -0.032 | [11] 0.037 | [12] 0.02 | [13] -0.025 | [14] 0.064 | [15] -0.125 | [16] -0.032 | [17] -0.015 | [1] -0.047 | [18] -0.299

ITPR3 (UniProt Q14573)
inactive: [4] -0.201 | [6] -0.145 | [11] -0.121 | [16] -0.042

INO80E (UniProt Q8NBZ0)
inactive: [2] -0.002 | [3] -0.1 | [4] -0.038 | [7] -0.11 | [8] 0.011 | [9] -0.037 | [10] 0.281 | [11] 0.009 | [12] 0.081 | [14] -0.151 | [15] 0.224 | [17] -0.129 | [18] -0.183

IDS (UniProt P22304)
inactive: [2] 0.09 | [3] -0.117 | [7] -0.123 | [12] -0.132 | [15] 0.038 | [18] -0.291

IL23R (UniProt Q5VWK5)
inactive: [6] -0.048 | [10] 0.063 | [16] -0.179 | [17] 0.078 | [1] 0.047

IGLC3 (UniProt P0DOY3)
inactive: [8] -0.115 | [11] 0.145 | [19] 1.76

IGSF1 isoform 4 (UniProt Q8N6C5)
inactive: [3] 0.059 | [7] 0.064 | [8] -0.342 | [11] -0.211 | [12] -0.116

IL2RG (UniProt P31785)
inactive: [5] 0.099 | [6] -0.067 | [19] -0.254 | [13] -0.042 | [15] 0.031 | [16] -0.007 | [18] -0.259

ITPR1 (UniProt Q14643)
inactive: [2] 0.029 | [4] 0.048 | [5] 0.627 | [9] -0.244 | [10] 0.054 | [13] -0.072 | [14] -0.059 | [17] 0.09

IGKV3D-11, A0A0A0MRZ8
inactive: [19] 0.856

IL1RAP isoform 5 (UniProt Q9NPH3)
inactive: [2] -0.006 | [3] 0.159 | [5] 0.049 | [6] -0.04 | [7] -0.291 | [10] -0.028 | [11] 0.162 | [12] -0.414 | [13] -0.203 | [15] -0.032 | [16] -0.212 | [17] 0.159 | [1] 0.14 | [18] -0.253

Reprinted from the listing (2 entries):
ISL2 (UniProt H0YN25)
inactive: [1] 0.061

IGSF8 (UniProt Q969P0)
inactive: [2] 0.064 | [3] -0.155 | [4] 0.003 | [5] -0.059 | [6] 0.006 | [7] -0.111 | [8] -0.156 | [9] 0.053 | [10] -0.032 | [11] 0.037 | [12] 0.02 | [13] -0.025 | [14] 0.064 | [15] -0.125 | [16] -0.032 | [17] -0.015 | [1] -0.047 | [18] -0.299
